{"sequences": {"note": "Chains of the proteins cited; added tags and fusions are not shown.", "UniProt O15409": "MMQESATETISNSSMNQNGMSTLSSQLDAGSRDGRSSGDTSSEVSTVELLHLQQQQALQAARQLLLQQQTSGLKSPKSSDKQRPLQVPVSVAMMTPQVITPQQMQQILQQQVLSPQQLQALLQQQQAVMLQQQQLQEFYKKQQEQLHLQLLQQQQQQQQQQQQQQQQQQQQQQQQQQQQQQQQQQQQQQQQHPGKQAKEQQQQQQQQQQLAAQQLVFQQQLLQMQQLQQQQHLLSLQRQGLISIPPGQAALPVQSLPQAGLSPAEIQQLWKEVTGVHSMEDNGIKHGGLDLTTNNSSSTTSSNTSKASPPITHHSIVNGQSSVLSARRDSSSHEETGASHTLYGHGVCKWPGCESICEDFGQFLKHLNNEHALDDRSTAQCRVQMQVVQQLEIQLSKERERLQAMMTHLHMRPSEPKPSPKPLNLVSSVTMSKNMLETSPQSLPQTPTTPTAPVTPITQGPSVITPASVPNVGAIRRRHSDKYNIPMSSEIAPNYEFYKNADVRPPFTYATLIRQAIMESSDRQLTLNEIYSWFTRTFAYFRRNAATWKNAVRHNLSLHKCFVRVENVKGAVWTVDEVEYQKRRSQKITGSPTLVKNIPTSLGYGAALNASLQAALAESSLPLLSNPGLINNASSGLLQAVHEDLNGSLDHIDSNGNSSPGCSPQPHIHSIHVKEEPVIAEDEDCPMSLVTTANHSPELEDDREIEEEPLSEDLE"}, "source": "paper PMC5288160", "target": "T1, FOXP1 (human (endogenous in RIVA and SU-DHL-2)) (UniProt Q9H334)", "T1 sequence": "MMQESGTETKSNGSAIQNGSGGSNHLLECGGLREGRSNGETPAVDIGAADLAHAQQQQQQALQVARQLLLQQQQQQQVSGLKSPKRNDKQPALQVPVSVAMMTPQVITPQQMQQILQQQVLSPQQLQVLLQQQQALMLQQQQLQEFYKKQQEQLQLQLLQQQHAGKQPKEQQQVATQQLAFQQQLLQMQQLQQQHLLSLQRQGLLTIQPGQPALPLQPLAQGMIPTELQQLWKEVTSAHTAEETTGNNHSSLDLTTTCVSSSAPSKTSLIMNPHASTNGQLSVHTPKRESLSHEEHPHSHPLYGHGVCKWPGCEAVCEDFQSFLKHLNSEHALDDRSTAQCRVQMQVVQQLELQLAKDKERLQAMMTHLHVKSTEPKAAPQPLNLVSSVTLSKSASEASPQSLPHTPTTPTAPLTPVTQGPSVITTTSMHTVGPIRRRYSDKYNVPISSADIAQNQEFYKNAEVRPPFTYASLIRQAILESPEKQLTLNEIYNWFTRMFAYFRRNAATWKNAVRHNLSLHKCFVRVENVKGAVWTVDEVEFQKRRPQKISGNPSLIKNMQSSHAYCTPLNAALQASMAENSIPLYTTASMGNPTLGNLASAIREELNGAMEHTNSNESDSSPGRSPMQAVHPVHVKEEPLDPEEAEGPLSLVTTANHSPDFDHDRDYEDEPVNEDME", "experiment": "co-IP; endogenous FOXP1 immunoprecipitated with anti-FOXP1 JC12 from RIVA and SU-DHL-2 cell lysates (100 ug, RIPA buffer), 4 °C, Protein G MicroBeads, washes with RIPA and low-salt buffer; FOXP2 detected by Western blot with FOXP2-73A/8; control antibodies IgG2a isotype and 130/B4", "note": "No constants are given. Whether binding was seen depends on the method and setting. In cells and extracts the contact can be indirect. Some results given as binding are weak or reduced against the parent protein; the word gives no strength."}
{"substance": "FOXP2 (from UniProt O15409 1-715)", "values": [{"measurement": "binding", "value": "binds"}]}
